This is one part of the list.
What was measured:
Assay in all cases: log2 fold change, soluble protein after heating vs DMSO (PISA); higher = thermal stabilisation; K562 cells, 10 uM, 30 min; active = over 0.2 and 3.5 SD of the protein, either way, in both replicates (recomputed)
[1] = compound: CC[C@@H]1C(=O)N(C)c2cnc(Nc3ccc(C(=O)NC4CCN(C)CC4)cc3OC)nc2N1C1CCCC1
Method in brief: (§1)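 Thermal stability values are relative to control samples and come from duplicates. They are expressed as log2 fold changes. For measurement, K562 cells (2×10^6 cells/mL) received 10 μM compound for 30 min, and aliquots were heated for 3 min over 48°C-58°C, pooled, and extracted at 4°C in PBS with 0.5% NP-40. Soluble protein, the supernatant after 21,000xg for 90 min, was quantified by TMTpro 16plex LC-MS/MS with equalised channel sums.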

By UniProt entry, the sequences of proteins in these tests, tags left out. Where a name states a change or a piece, a line headed by the entry shows the natural chain unless it says otherwise.
UniProt P10301: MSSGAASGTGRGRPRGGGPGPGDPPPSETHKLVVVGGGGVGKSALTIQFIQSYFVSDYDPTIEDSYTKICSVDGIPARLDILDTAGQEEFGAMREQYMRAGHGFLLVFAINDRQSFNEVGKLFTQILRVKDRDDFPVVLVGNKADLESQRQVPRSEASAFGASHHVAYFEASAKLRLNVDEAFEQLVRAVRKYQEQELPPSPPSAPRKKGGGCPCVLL
UniProt Q7L523, whole entry, looked up: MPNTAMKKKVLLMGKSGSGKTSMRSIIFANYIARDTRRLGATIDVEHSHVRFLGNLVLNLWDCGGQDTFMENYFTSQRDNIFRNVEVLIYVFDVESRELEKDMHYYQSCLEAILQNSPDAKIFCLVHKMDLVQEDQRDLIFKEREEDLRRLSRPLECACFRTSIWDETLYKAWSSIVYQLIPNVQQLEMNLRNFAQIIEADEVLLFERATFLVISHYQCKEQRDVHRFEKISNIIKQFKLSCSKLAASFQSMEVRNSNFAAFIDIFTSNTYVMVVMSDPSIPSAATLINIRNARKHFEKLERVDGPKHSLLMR
UniProt Q9UBF6, whole entry, looked up: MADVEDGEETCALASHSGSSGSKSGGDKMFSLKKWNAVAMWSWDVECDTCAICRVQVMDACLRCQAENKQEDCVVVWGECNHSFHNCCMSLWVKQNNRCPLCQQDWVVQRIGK
UniProt Q9P2E9: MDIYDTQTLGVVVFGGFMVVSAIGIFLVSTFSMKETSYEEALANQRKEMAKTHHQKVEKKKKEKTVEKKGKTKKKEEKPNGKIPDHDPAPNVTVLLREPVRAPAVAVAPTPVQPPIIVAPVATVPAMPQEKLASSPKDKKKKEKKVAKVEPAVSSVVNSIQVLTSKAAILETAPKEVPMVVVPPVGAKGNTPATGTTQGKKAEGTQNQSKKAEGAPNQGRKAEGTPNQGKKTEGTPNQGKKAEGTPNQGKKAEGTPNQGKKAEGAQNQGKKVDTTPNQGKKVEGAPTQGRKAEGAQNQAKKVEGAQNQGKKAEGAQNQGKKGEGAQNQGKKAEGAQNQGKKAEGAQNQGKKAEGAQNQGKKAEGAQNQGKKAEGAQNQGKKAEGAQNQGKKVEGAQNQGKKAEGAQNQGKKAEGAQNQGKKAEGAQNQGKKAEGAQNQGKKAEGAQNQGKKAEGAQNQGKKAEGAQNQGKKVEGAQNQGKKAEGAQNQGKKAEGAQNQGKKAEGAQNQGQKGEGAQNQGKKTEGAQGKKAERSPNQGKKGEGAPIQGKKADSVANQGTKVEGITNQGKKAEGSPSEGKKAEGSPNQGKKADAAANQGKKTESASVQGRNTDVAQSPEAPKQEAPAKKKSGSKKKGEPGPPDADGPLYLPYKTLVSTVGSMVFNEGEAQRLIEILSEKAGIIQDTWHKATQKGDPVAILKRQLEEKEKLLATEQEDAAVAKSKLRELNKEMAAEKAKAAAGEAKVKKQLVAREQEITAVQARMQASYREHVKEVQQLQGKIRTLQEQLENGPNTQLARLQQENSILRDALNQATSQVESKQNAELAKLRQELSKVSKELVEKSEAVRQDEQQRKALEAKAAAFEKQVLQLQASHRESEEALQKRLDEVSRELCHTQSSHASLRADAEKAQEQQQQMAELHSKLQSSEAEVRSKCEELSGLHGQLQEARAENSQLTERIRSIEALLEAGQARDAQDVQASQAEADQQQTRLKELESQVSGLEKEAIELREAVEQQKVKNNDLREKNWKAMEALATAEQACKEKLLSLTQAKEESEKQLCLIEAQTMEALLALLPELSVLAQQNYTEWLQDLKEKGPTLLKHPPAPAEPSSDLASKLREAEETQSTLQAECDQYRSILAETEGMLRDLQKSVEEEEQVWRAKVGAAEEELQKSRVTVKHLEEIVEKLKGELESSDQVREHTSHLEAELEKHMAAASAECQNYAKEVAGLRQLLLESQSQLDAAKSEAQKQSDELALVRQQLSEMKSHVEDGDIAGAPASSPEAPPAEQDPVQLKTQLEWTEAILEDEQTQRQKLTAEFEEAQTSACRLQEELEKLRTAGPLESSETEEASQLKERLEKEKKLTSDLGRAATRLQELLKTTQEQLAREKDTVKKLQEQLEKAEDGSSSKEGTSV
UniProt P23921: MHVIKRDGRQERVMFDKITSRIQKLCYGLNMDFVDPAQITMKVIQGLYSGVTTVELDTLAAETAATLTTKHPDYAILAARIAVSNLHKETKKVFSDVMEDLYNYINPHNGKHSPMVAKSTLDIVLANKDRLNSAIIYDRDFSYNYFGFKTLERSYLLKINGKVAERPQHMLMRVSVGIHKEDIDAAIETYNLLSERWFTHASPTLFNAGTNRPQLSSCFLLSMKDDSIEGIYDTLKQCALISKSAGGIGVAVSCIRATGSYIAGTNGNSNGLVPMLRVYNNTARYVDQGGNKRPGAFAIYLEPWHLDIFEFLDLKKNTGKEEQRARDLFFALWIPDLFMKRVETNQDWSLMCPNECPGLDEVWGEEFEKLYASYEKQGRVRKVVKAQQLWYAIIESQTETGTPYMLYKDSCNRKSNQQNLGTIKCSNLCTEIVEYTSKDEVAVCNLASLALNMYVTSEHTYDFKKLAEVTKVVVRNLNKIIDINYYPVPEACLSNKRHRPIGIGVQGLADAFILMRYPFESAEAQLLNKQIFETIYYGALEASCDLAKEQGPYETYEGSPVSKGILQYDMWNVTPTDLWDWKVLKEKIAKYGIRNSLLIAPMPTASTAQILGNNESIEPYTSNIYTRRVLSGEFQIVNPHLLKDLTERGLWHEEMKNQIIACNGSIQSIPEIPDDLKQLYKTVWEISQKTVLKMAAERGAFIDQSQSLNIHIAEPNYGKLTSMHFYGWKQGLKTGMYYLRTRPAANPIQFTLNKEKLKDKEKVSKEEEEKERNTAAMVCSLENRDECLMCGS

volasertib = compound: CC[C@@H]1C(=O)N(C)c2cnc(Nc3ccc(C(=O)N[C@H]4CC[C@H](N5CCN(CC6CC6)CC5)CC4)cc3OC)nc2N1C(C)C [volasertib]
Method in brief: as §1

[2] = compound: CC[C@H](C)N1C=C(C2=C(C=C(C=C21)C3=CN=C(C=C3)N4CCNCC4)C(=O)NCC5=C(C=C(NC5=O)C)C)C
Method in brief: as §1

epoxomicin = compound: CC[C@H](C)[C@@H](C(=O)N[C@@H]([C@@H](C)O)C(=O)N[C@@H](CC(C)C)C(=O)[C@]1(CO1)C)NC(=O)[C@H]([C@@H](C)CC)N(C)C(=O)C [epoxomicin]
Method in brief: as §1

[3] = compound: CCn1c(C(=O)N(C2CC2)C2CC2)cc2c3c(ncn3C)c(Nc3cc(C)n(C)n3)nc21
Method in brief: as §1

[4] = compound: CCn1cc(-c2ccnc3[nH]c(-c4cccc(CN(C)C)c4)cc23)c(-c2ccc(NC(=O)N(C)C)cc2)n1
Method in brief: as §1

[5] = compound: CN(C)CC(=O)Nc1ccc2[nH]c(=O)c3ccccc3c2c1
Method in brief: as §1

rosiglitazone = compound: CN(CCOC1=CC=C(C=C1)C[C@H]2C(=O)NC(=O)S2)C3=CC=CC=N3 (racemic) [rosiglitazone]
Method in brief: as §1

[6] = compound: CN1C2=C(C3=C1C(=O)N(N=C3)CC4=CC(=CC=C4)N)SC(=C2)S(=O)C
Method in brief: as §1

[7] = compound: CN1CCC(CNc2ccc3ncc(-c4cccc(OC(F)(F)F)c4)n3n2)CC1
Method in brief: as §1

Measured: log2 fold change

RPL32 (UniProt P62910)
inactive: [1] 0.225 | volasertib 0.694 | [2] 0.001 | epoxomicin -0.364 | [3] 0.038 | [4] 0.046 | [5] -0.195 | rosiglitazone -0.266 | [6] 0.418 | [7] 0.417

RPL36 (UniProt Q9Y3U8)
inactive: [1] 0.256 | volasertib 0.795 | [2] -0.04 | epoxomicin -0.611 | [3] 0.056 | [4] 0.294 | [5] -0.236 | rosiglitazone -0.295 | [6] 0.555 | [7] 0.448

RRAS (UniProt P10301)
inactive: [1] 0.114 | volasertib 0.104 | [2] -0.041 | epoxomicin -0.023 | [3] -0.024 | [4] 0.007 | [5] -0.032 | rosiglitazone -0.015 | [6] -0.067 | [7] 0.121

RPL23 (UniProt P62829)
inactive: [1] 0.176 | volasertib 0.379 | [2] 0.041 | epoxomicin -0.207 | [3] -0.006 | [4] 0.101 | [5] -0.078 | rosiglitazone -0.091 | [6] 0.227 | [7] 0.143

RRAGA (UniProt Q7L523)
inactive: [1] -0.057 | volasertib 0.007 | [2] -0.029 | epoxomicin 0.021 | [3] 0.071 | [4] 0 | [5] 0.017 | rosiglitazone 0.009 | [6] -0.106 | [7] 0.036

RNF7 (UniProt Q9UBF6)
inactive: [1] 0.026 | volasertib 0.044 | [2] 0.471 | epoxomicin -0.006 | [3] 0.04 | [4] 0.033 | [5] 0.052 | rosiglitazone 0.007 | [6] -0.052 | [7] 0.066

RPL15 (UniProt P61313)
inactive: [1] 0.298 | volasertib 0.816 | [2] -0.028 | epoxomicin -0.801 | [3] 0.073 | [4] 0.407 | [5] -0.312 | rosiglitazone -0.307 | [6] 0.633 | [7] 0.487

RPL17 isoform 3 (UniProt P18621)
inactive: [1] 0.182 | volasertib 0.512 | [2] 0.044 | epoxomicin -0.357 | [3] -0.025 | [4] 0.325 | [5] -0.138 | rosiglitazone -0.2 | [6] 0.314 | [7] 0.187

RPL36AL (UniProt Q969Q0)
inactive: [1] 0.026 | volasertib 0.45 | [2] -0.016 | epoxomicin -0.137 | [3] -0.01 | [4] 0.208 | [5] -0.24 | rosiglitazone -0.222 | [6] 0.293 | [7] 0.357

RRBP1 (UniProt Q9P2E9)
inactive: [1] 0.205 | volasertib 0.435 | [2] -0.032 | epoxomicin -0.441 | [3] 0.039 | [4] 0.37 | [5] -0.184 | rosiglitazone -0.213 | [6] 0.416 | [7] 0.268

RPL34 (UniProt P49207)
inactive: [1] 0.275 | volasertib 0.772 | [2] -0.014 | epoxomicin -0.813 | [3] 0.073 | [4] 0.327 | [5] -0.236 | rosiglitazone -0.374 | [6] 0.532 | [7] 0.486

RPL27 (UniProt P61353)
inactive: [1] 0.228 | volasertib 0.578 | [2] -0.002 | epoxomicin -0.622 | [3] 0.032 | [4] 0.286 | [5] -0.245 | rosiglitazone -0.256 | [6] 0.425 | [7] 0.438

RRM1 (UniProt P23921)
inactive: [1] 0.031 | volasertib 0.051 | [2] -0.029 | epoxomicin 0.036 | [3] -0.01 | [4] -0.114 | [5] -0.014 | rosiglitazone 0.016 | [6] -0.049 | [7] -0.045

— the supplement of paper PMC10849652
